In experiment [1] the target is rGad m 1 wt (recombinant Gad m 1, Atlantic cod beta-parvalbumin) (Atlantic cod) (UniProt A5I874). Kind of experiment: dynamic light scattering; 50 mM Tris-HCl, pH 7.5, 2 mM Ca2+, 160 μM protein; hydrodynamic radius; both purified.
For experiment [2] the target is unchanged. Briefly: ThT fluorescence kinetics of amyloid formation; 150 μM protein in 50 mM Tris-HCl, pH 7.5, 0.1 M NaCl, 5 mM CaCl2, 10 μM ThT, 37 °C, orbital shaking; both purified.

No constants are given. Whether binding was seen depends on the method and setting.

The values below come from article PMC5011719, “The amyloid fold of Gad m 1 epitopes governs IgE binding” (Scientific Reports, 2016).

B1: rGad m 1 wt (recombinant Gad m 1, Atlantic cod beta-parvalbumin) (natural protein, UniProt A5I874 1-109, looked up)
chain: MAFAGILNDADITAALAACKAEGSFDHKAFFTKVGLAAKSSADIKKVFEIIDQDKSDFVEEDELKLFLQNFSAGARALSDAETKVFLKAGDSDGDGKIGVDEFGAMIKA
notes: Gad m 1, Atlantic cod beta-parvalbumin; synthetic ORF in pET15b; Monomer in Ca2+, forms amyloids in EDTA; also called rGad wt; not shown: 6XHis, N-terminal, kept
As for B1, the binding result in experiment [1] is listed as “no binding (condition: with 2 mM Ca2+; 160 μM protein)”; in experiment [2], “no binding (condition: with 5 mM Ca2+; 150 μM)”.
